Screen size: about 31,000 sequences; about 1,400 (4.5%) were called active.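 The calls were made as follows: active = median seed-adjusted z-score above 1 or below -1; inactive = the rest.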 The list shows a part of the results.

A short description of the assay: Novel Modifiers of Survival Motor Neuron (SMN) Protein: Gene Identification via Genome-wide siRNA Screen.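 Also: luminescence tracks full-length SMN protein made from the SMN2 reporter.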 The following applies: HEK293T SMN2-luciferase reporter, siRNA knockdown, 72 h; actives lie on both sides. The method in brief:
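HEK293T cells stably carrying an SMN2 promoter/splicing cassette–luciferase reporter were reverse-transfected with 1 pmol siRNA per well (druggable-genome library, 3 siRNAs per gene) and grown 72 h at 37 °C. Luminescence, normalized to negative-control siRNA and log10-transformed, was scored as MAD.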
On the technique in general: A reporter such as luciferase makes a cellular process visible.
With GACUAAAGAUGUAUAAGCATT against PSMB1, the median seed-adjusted z-score was inactive: -0.35.

For GGACGGUCAUUGAUUACAATT against P4HB, the median seed-adjusted z-score is inactive: -0.0514.

On to CAUUCAGCCCAACAAGAAATT against CYB5R1, for which the median seed-adjusted z-score is inactive: 0.

Take CUCUGGUAGAAUCCAAUUATT against GIN1: the median seed-adjusted z-score is inactive: -0.0585.

Consider CCCAAGGCCUGCUUAUUCATT against POLR2J2, for which the median seed-adjusted z-score was inactive: 0.375.

As for GAAUUUCCUUGUCUCGAAUTT against EPX, the median seed-adjusted z-score is inactive: 0.159.

As to GGUUGUUUUGGAAACCGAATT against NAT12, the median seed-adjusted z-score was inactive: -0.0807.

For UCACAGAAGUUCACGCUGATT against INPPL1, the median seed-adjusted z-score was inactive: 0.199.

In the case of GGAGUUAUGUUGGGAUAAATT against TIMM8B, the median seed-adjusted z-score was inactive: -0.853.

For the sequence CGUCCUCAUCGAGACUUCATT against D2HGDH, the median seed-adjusted z-score is inactive: -0.637.

On to GGUGACCGGUUACUUGGGATT against FFAR1, for which the median seed-adjusted z-score was inactive: 0.248.

Take GAGCAGCUUUGGAUAAUGATT against ZNF226: the median seed-adjusted z-score was inactive: 0.437.

For the sequence GUACUAACUUGGUUAAGAATT against NAT12, the median seed-adjusted z-score is inactive: -0.0807.

Consider AGGAUGACUUGUUCGCGGATT against RTN4RL2, for which the median seed-adjusted z-score was inactive: -0.168.

As for GAAAUGACCUUAUUAGUCATT against RYK, the median seed-adjusted z-score was inactive: -0.446.

Take CAACAUCCCUGAAUCUCCATT against CYP4A11: the median seed-adjusted z-score was inactive: -0.762.

Take GGAAAAGGCUCUUCCGGAATT against TRIM50: the median seed-adjusted z-score is inactive: 0.

In the case of GCGUGGACCCAAAUCAAUATT against KARS, the median seed-adjusted z-score was inactive: -0.152.

As for GCAAGGAGUAUAACAUGUATT against SKAP1, the median seed-adjusted z-score was inactive: -0.00637.

Consider CAGUAUUUAUCGAGAUAAATT against SOX2, for which the median seed-adjusted z-score is inactive: 0.0559.

For AGGAUCUAGUGGUCCAUAUTT against COL4A6, the median seed-adjusted z-score was inactive: 0.0681.

Take GUAUUAGAUUCCAAUGACATT against PCDHB9: the median seed-adjusted z-score was inactive: 0.516.

In the case of GGAUAUUACUUGCAAAGGATT against GTF2I, the median seed-adjusted z-score was inactive: 0.379.

GACUGGAUUUUGUGAUUCATT against GLULD1: the median seed-adjusted z-score was inactive: -0.332.

As for CAAAGACGAAUUUCAGCUATT against AES, the median seed-adjusted z-score is inactive: -0.478.

Turning to CGAUGAUUGAGGUGCUAAATT against TTC13, the median seed-adjusted z-score was inactive: 0.0363.

For CAGUAUUGCUACAAACCGATT against RBMS1, the median seed-adjusted z-score was inactive: 0.798.

Take AGAUGUGAAGCUCAAAUUATT against ETV7: the median seed-adjusted z-score was inactive: -0.00772.

On to GGUUUUUAUAGAGCACAAATT against BCL11B, for which the median seed-adjusted z-score was inactive: 0.163.

As for GGAAUUAGACGACAGAUCATT against EPPK1, the median seed-adjusted z-score is inactive: 0.786.

With CCUAUGCUGUGCUCACGAATT against HLX, the median seed-adjusted z-score was inactive: 0.379.

On to AAGCCUCAUGGGAUCCUUATT against NPTXR, for which the median seed-adjusted z-score is inactive: 0.0818.

Consider GGCUUGACAUUCUACGUUUTT against PPP1R3A, for which the median seed-adjusted z-score is inactive: -0.241.

In the case of CCAUCACCGUGCCCUACAATT against PURA, the median seed-adjusted z-score is inactive: -0.0185.

On to AACUGGAUGUGAAAACAAATT against VDAC2, for which the median seed-adjusted z-score is inactive: 0.648.

For the sequence GGAUUCUGUAUUAUGGAUATT against TOP1, the median seed-adjusted z-score was inactive: 0.0303.

For UCUCCCUCAUCUACACCAATT against GSTP1, the median seed-adjusted z-score was inactive: -0.61.

For the sequence CGUGAUCAAUAGGAAAAUUTT against CCL8, the median seed-adjusted z-score was inactive: 0.436.

As to UCAUCAGCGUGGUCCAGAATT against ALOX5AP, the median seed-adjusted z-score is inactive: -0.0169.

With GAAUUGUGCGGGAUUAUGATT against PCYT1A, the median seed-adjusted z-score is inactive: 0.0429.

For GCAUGCUUCCAUUGCGAGATT against LASP1, the median seed-adjusted z-score was inactive: -0.286.

As for UGACCUACGAGGAAAUUCATT against PFKFB4, the median seed-adjusted z-score was inactive: 0.149.

As for CGAGGUUACCAACAUGCUUTT against PLA2G3, the median seed-adjusted z-score was inactive: 0.543.

GAAUUACCUUCAUAUCCUUTT against ZNF518A: the median seed-adjusted z-score is inactive: -0.252.

With CGGAUGUUCUUUACACUAUTT against HNRNPL, the median seed-adjusted z-score was active: 1.04.

Turning to CGAACAGGCCUAUUCUCUATT against NDUFS2, the median seed-adjusted z-score is inactive: -0.388.

For the sequence GCCCUAUUGCGAGAUGGUATT against PPM1K, the median seed-adjusted z-score is inactive: 0.154.

On to GCCUGUUAAGGAUCUAACATT against PTPRB, for which the median seed-adjusted z-score was inactive: -0.0981.

Consider CAGAAUCUAUUGUUAAUGATT against TMED10, for which the median seed-adjusted z-score was inactive: 0.523.

Take CAUCUAAACCGGAAGGUUUTT against KCNH5: the median seed-adjusted z-score is inactive: -0.827.

Turning to GAGCAAAGCCUGCAACAAATT against TAL2, the median seed-adjusted z-score is inactive: -0.395.

As for GAGACAAGCUUCAACCACATT against SERPINA5, the median seed-adjusted z-score was active: -1.01.

Turning to UGGUAUCUCCUCUAAGUAATT against IGFBP7, the median seed-adjusted z-score was inactive: 0.116.

For the sequence CUCUUAUGGUAACCAAUGATT against CCT2, the median seed-adjusted z-score was inactive: -0.0508.

Turning to CCAAUGGAAACGGAACUAATT against MGAM, the median seed-adjusted z-score is inactive: 0.312.

Consider CUGUCUACAUGAGCAGUAATT against CTSE, for which the median seed-adjusted z-score was inactive: -0.1.

For GGUCUAGAGAUAGAUCAUUTT against NGLY1, the median seed-adjusted z-score is inactive: -0.0453.

Take GGAGCUGAGGAUAACUAUATT against MARS: the median seed-adjusted z-score was inactive: -0.266.

For the sequence CCGUGGUGGUUGACGAUAATT against ADAMTS17, the median seed-adjusted z-score is inactive: 0.257.

In the case of CUAUAGGACUGGAUUUCUUTT against RAB28, the median seed-adjusted z-score is inactive: 0.114.

Take GGAUCACAUUCAUCCCUAUTT against GPRC6A: the median seed-adjusted z-score is inactive: 0.

As to GACUAAUGGAUGAAGCUAATT against PBK, the median seed-adjusted z-score is inactive: -0.311.

As for GAUUGGACCUAACAAUGGATT against NEIL3, the median seed-adjusted z-score is inactive: 0.0736.

Regarding CCAAUUCCAGGUUAACUUUTT against S100A7A, the median seed-adjusted z-score was inactive: 0.212.

For the sequence GCUUCAUCGUAUGGAAGAATT against NTSR2, the median seed-adjusted z-score was inactive: -0.125.

On to GCUGCGUUCUGGUAUUUGATT against RAB7A, for which the median seed-adjusted z-score was inactive: 0.169.

For GACUUUUACAAGGAUGGGATT against PTGIS, the median seed-adjusted z-score was inactive: 0.

Regarding GGCUACCUUUCAUCAAAGATT against EIF3B, the median seed-adjusted z-score is inactive: -0.71.

Consider GCAAAGACCAUAAGAUUUATT against MYST1, for which the median seed-adjusted z-score was inactive: 0.

On to GCACGUACUUGAUUCAGCATT against ZNF34, for which the median seed-adjusted z-score was inactive: 0.0391.

Turning to GCUUCAAUCAAAAUUCGAATT against VCL, the median seed-adjusted z-score was inactive: 0.

CACCUGUUCGUGUCCUUCATT against SCTR: the median seed-adjusted z-score is inactive: -0.352.

In the case of GCAUUGGACUGAUCCAGCATT against ZNF643, the median seed-adjusted z-score is inactive: -0.0134.

On to ACAUCCGCAUGAUCCAUAATT against WDTC1, for which the median seed-adjusted z-score was inactive: -0.412.

Take GGUCUAGCCUUGAUCAGAATT against SHROOM3: the median seed-adjusted z-score is inactive: 0.779.

On to GGUGCAACAUCUAGAUUCATT against ABCG5, for which the median seed-adjusted z-score was inactive: 0.739.

Consider ACAGCAUUGUCAUUAGACATT against UBR5, for which the median seed-adjusted z-score is inactive: 0.114.

Consider GCUGGAUAGUAGCAGACGATT against LY75, for which the median seed-adjusted z-score is inactive: -0.0919.

On to GAAUUAUGGAUGACGAUAATT against CAPSL, for which the median seed-adjusted z-score was inactive: -0.168.

Regarding GGCUGAAGAGGUCGAUGUATT against MAP1B, the median seed-adjusted z-score was inactive: 0.139.

In the case of GGACCAGUGCAGCAAAUCATT against ALDH1A1, the median seed-adjusted z-score was inactive: -0.355.

For the sequence CGUCUAUGAUGUGACCAAUTT against RABL4, the median seed-adjusted z-score is inactive: -0.154.

On to ACCAGUAUUUCAACCAUCATT against CITED2, for which the median seed-adjusted z-score is inactive: -0.0248.

For the sequence GGCACAACAUUUCCCUAAATT against TBK1, the median seed-adjusted z-score is inactive: 0.0578.

For the sequence GCUACUAUGCUGUCCUGUATT against GPR161, the median seed-adjusted z-score was inactive: -0.138.

As to CUACCGGGCUGACCUCAAATT against GPR153, the median seed-adjusted z-score is active: -1.08.

For GACCGAGAAGUACCGCUGATT against HBZ, the median seed-adjusted z-score is inactive: -0.0054.

Consider CCAGCGAUGAAGUAGCAAATT against ZAN, for which the median seed-adjusted z-score is inactive: 0.736.

GAAACAAGCCCUUUAAGUUTT against FKBP1A: the median seed-adjusted z-score was inactive: 0.113.

On to CAAGCAUAUUAAUGAGGUUTT against DYRK1A, for which the median seed-adjusted z-score was active: -1.3.

Consider CUUGUGCCCUGGACAUUAATT against GLG1, for which the median seed-adjusted z-score is inactive: 0.308.

Take GCAUACUGGAAGGUAGUUATT against MMP21: the median seed-adjusted z-score is inactive: -0.185.

In the case of AGAUGUACGGCCGAAAUGATT against TEAD3, the median seed-adjusted z-score is inactive: 0.

Take GAACUAGGAUUUCAUAGCATT against LGR5: the median seed-adjusted z-score was inactive: 0.

On to CCACCAAACGGCACACUUUTT against LINGO4, for which the median seed-adjusted z-score was inactive: 0.388.

For CCCUCUUGCUGAUAGUGCATT against SEMA4A, the median seed-adjusted z-score was inactive: 0.0377.

Regarding AGGUGUUUUUAAGCUAGAATT against UBE2T, the median seed-adjusted z-score is inactive: -0.0157.

For the sequence GCAUAUGGACUAACAGACATT against FDX1, the median seed-adjusted z-score is inactive: -0.0549.

With GCAUUAGUCUGGGCAUUGATT against SLC16A6, the median seed-adjusted z-score is inactive: 0.195.

Consider CAUUGUCAUUUACAACUGATT against TMPRSS11E, for which the median seed-adjusted z-score was inactive: 0.0512.

CCACCAGGCAAUAACCACATT against DIRAS1: the median seed-adjusted z-score is inactive: -0.751.

Regarding GGAUUCCACGAACAAUAGATT against MCM8, the median seed-adjusted z-score is inactive: 0.279.

As for GCCUUGGACUUUCUGCAUATT against MKNK2, the median seed-adjusted z-score was inactive: 0.281.

Take UACAUGAACUGGUUCAUCATT against SPNS3: the median seed-adjusted z-score is inactive: -0.00533.

As for CGCAUGUCAGUCUCUCGAATT against SYT14L, the median seed-adjusted z-score was inactive: 0.2.

Turning to GUCUCAAGCUCAACACGGATT against EPHA8, the median seed-adjusted z-score was inactive: 0.217.

With CGACUAUUCCAGCACAAGATT against QARS, the median seed-adjusted z-score was inactive: -0.411.
